Laboratory results: paper PMC9114114
These are yes or no findings as the source states them, for the method shown. For some of these results: Binding seen in cells or lysates may run through a third protein. Some results given as binding are weak or reduced against the parent protein; the word gives no strength.

By UniProt entry, the sequences of proteins in these tests, tags left out.
UniProt P12956: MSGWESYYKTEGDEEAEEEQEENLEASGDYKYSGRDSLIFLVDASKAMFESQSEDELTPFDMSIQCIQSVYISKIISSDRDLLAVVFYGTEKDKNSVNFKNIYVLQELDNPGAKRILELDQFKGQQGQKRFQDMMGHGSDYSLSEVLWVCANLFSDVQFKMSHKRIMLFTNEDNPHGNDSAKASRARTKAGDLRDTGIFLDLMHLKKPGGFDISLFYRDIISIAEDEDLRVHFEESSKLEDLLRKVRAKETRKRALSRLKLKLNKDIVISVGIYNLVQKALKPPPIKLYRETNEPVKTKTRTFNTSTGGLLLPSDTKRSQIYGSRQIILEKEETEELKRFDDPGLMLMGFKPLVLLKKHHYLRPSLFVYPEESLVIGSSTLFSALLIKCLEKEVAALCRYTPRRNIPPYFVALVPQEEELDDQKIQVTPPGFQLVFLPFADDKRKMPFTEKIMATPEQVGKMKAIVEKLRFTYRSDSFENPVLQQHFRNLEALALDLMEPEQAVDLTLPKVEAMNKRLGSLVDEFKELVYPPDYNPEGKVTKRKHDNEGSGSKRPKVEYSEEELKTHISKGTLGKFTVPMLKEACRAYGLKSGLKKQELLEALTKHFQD
UniProt Q9H1Y0: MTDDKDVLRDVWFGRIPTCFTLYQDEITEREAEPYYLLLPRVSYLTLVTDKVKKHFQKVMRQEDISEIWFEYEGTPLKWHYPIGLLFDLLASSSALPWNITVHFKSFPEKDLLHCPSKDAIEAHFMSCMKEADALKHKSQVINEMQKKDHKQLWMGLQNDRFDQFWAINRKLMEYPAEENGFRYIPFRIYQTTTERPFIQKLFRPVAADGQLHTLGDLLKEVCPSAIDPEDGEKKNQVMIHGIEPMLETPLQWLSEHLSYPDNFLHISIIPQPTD

What was measured:
[1] = target: endogenous Ku70 (human (endogenous in HEK293T and HeLa)) (UniProt P12956); assay: SEC; Superose 6 10/300 GL (5-5000 kDa); total cell extracts (DMSO, etoposide or doxorubicin 24 h); fractions immunoblotted with anti-ATG5 and anti-Ku70
[2] = target: endogenous ATG5 (human (endogenous in HEK293T)) (UniProt Q9H1Y0); assay: co-IP; co-IP from cellular fractions of doxorubicin treated HEK293T cells
[3] = target: endogenous ATG5 (human (endogenous in HEK293T)) (UniProt Q9H1Y0); assay: co-IP; endogenous IP from HEK293T; antibody-coupled protein G or A-agarose, 2 mg lysate; rabbit serum as control; DMSO or etoposide 24 h
[4] = target: non-tagged full-length human ATG5 (human) (UniProt Q9H1Y0); assay: co-IP; HEK293T transfected with non-tagged ATG5; IP with anti-ATG5 antibody on protein G or A-agarose, 2 mg lysate; blots for endogenous Ku70 and Ku80; DMSO or etoposide

Row | binding [1] | binding [2] | binding [3] | binding [4] | Substance
1 | binds |  |  |  | ATG5-12 (from UniProt Q9H1Y0 1-275; O94817 1-140) (complex)
2 |  | binds | binds | binds | endogenous Ku70 (from UniProt P12956 1-609)
